Measured values reported in PubChem BioAssay AID1347076 (National Center for Advancing Translational Sciences (NCATS), 2019).
About 13,000 (3.2%) of roughly 400,000 compounds were called active. The shares of active, inactive and inconclusive entries below differ from those in the screen. Calls come from the whole dose curve; as a rule, active = well fitted cell-killing curve with a large enough effect; inconclusive = small, poorly fitted or top-dose-only effect, or effect the other way; inactive = flat fitted curve, though single readings scatter. Potencies of inconclusive entries are doubtful fits and often do not repeat.

Test: qHTS assay for MDR1-selective chemotherapeutics: Primary screen using the drug-selected MDR subline cells KB-V1; note: nearly all actives have a fitted effect of over 60% in size
Conditions: KB-V1 MDR cells viability, CellTiter-Glo, 72 h; activity change, negative = cytotoxicity: at 46.1 µM (top of the series)
In short: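 Luminescent ATP read-out (CellTiter-Glo, 10 min) measures survival of drug-selected KB-V1 MDR cells after 72 h, 37 degrees C compound exposure. Medium: phenol-red-free DMEM, 10% FBS. Values from fitted concentration-response curves.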
% is set by controls: 0 for no effect and ±100 for the full control effect; potency is the fitted concentration of half-maximal effect.

Compound | Potency | activity change, negative = cytotoxicity
Cc1cc(Br)ccc1NC(=O)CN(C)C(=O)CCSc1ccc(F)cc1 | inconclusive: 16.4 µM [cytotoxic, partial curve] | –
CCOc1ccc(S(=O)(=O)NCc2cccnc2)cc1NC(=O)c1ccccc1 | – | inactive: -6.11%
CNC(=O)C(Sc1nc(C)nc2c1oc1ccccc12)C(C)=O (stereo not given) | inconclusive: 23.1 µM [cytotoxic, partial curve] | –
CC(C)N(CCNC(=O)COc1ccc2oc3c(c2c1)CCCC3)C(C)C | – | inactive: -19.1%
CCS(=O)(=O)Nc1cccc(C2=NN(S(=O)(=O)c3ccc(C)cc3)C(c3cccs3)C2)c1 (stereo not given) | inconclusive: 7.31 µM [cytotoxic, partial curve] | –
COc1cccc(CN2CCN(c3ccc(F)cc3)C2=O)c1 | inconclusive: 23.1 µM [cytotoxic, partial curve, poor fit] | –
CCCNC(=O)C1(C)CCN(Cc2ccc(C)c3ccccc23)C1 (stereo not given) | – | inconclusive: -53.9%
Cc1cc(=O)[nH]c(SCn2nnc3ccccc3c2=O)n1 | inconclusive: 18.4 µM [cytotoxic, partial curve, poor fit] | –
CCCN(CC(=O)Nc1ccccc1C)C(=O)c1ccc(C)c(S(=O)(=O)N2CCCCC2)c1 | – | inactive: -32.3%
CSCCC(NC(=O)c1ccccc1)C(=O)NCc1ccc(S(N)(=O)=O)cc1 (stereo not given) | inconclusive: 25.9 µM [rising, single point] | –
CCCCCCCCN1C(=O)[C@H](CC(=O)N2CCN(C(=O)c3ccco3)CC2)C[C@@]2(C(=O)OCC)CCCC=C12 | inconclusive: 8.2 µM [cytotoxic, partial curve] | –
Cc1cc(C)n(CC(C)NCc2cn[nH]c2-c2ccc(C)c(C)c2)n1 (stereo not given) | inconclusive: 20.6 µM [cytotoxic, single point] | –
COC(=O)c1ccccc1NC(=O)c1ccccc1NS(C)(=O)=O | inconclusive: 20.6 µM [cytotoxic, partial curve] | –
Cc1ccsc1/C=C/c1ccc2cccc(O)c2n1 | active: 13 µM | –
Cc1ccc(N(CC(=O)Nc2ccc(S(=O)(=O)N3CCOCC3)cc2)S(C)(=O)=O)cc1C | active: 23.1 µM | –
Cc1cc(C(=O)N/N=C/c2ccc([N+](=O)[O-])o2)c(C)o1 | – | inactive: -27.2%
Cc1ccc(S(=O)(=O)NCc2ccc(C(=O)NC3CC3)cc2)cc1 | inconclusive: 20.6 µM [cytotoxic, single point] | –
Cc1c(C(=O)Nc2ccc3c(c2)OCCO3)oc2ccc(Br)cc12 | active: 20.6 µM | –
COc1ccc(C(CCNCc2ccc(F)cc2)c2ccc(F)cc2)cc1 (stereo not given) | inconclusive: 29.1 µM [cytotoxic, single point] | –
CN(Cc1ccc2nsnc2c1)C(=O)C1CCC(=O)N(CCc2ccccc2)C1 (stereo not given) | inconclusive: 29.1 µM [cytotoxic, single point] | –
COc1cccc(CC(=O)Nc2nc(-c3ccc(OC)c(OC)c3)cs2)c1 | inconclusive: 8.2 µM [cytotoxic, partial curve, poor fit] | –
CN1CCN(CCC(=O)Nc2ccccc2)CC1 | – | inactive: 34.2%
CC(C)(C)c1ccc(C(=O)NC2(C(F)(F)F)C(=O)Nc3c2c(=O)[nH]c(=O)n3-c2ccccc2)cc1 (stereo not given) | – | inactive: 11.8%
O=C(c1cccc(S(=O)(=O)N2CCN(c3ccc(F)cc3)CC2)c1)N1CCCC(C(F)(F)F)C1 (stereo not given) | inconclusive: 1.84 µM [cytotoxic, full curve] | –

Entries from the list above containing bromine, in the order listed:
Compound | Potency | activity change, negative = cytotoxicity
Cc1cc(Br)ccc1NC(=O)CN(C)C(=O)CCSc1ccc(F)cc1 | inconclusive: 16.4 µM [cytotoxic, partial curve] | –
Cc1c(C(=O)Nc2ccc3c(c2)OCCO3)oc2ccc(Br)cc12 | active: 20.6 µM | –

Later entries.

Compound | Potency | activity change, negative = cytotoxicity
O=C(NNc1ncc(C(F)(F)F)cc1Cl)c1ccc(Cl)c(Cl)c1 | – | inactive: -5.98%
COc1ccccc1NC(=S)N(CCc1c(C)[nH]c2ccccc12)Cc1cccs1 | inconclusive: 13 µM [cytotoxic, partial curve] | –
CCOC(=O)C1(C)CCCN(C(=O)c2cccc(C#N)c2)C1 (stereo not given) | – | inactive: 0.751%
O=C(Nc1cccnc1)c1ccccc1-c1ccccc1 | inconclusive: 6.51 µM [cytotoxic, full curve] | –
CC(=O)Nc1cc(-c2cccc(F)c2)cn2c(-c3ccccc3)cnc12 | – | inactive: 0.978%
O=C(Cn1c(=O)c2cccn2c2ccc(F)cc21)NCCCN1CCN(c2ccccc2F)CC1 | – | inactive: 16.1%
O=C(CCC(=O)N(CC(=O)NC1CCCC1)c1cccc(F)c1)Nc1nccs1 | – | inactive: 10.9%
S=C(NCc1ccccc1)NCc1ccco1 | – | inactive: -6.35%
COc1ccc(NC(=O)COC(=O)CCc2nc3ccccc3c(=O)[nH]2)c(OC)c1 | inconclusive: 32.6 µM [rising, single point] | –
CC1=Nc2cc(C(=O)NCCc3ccccc3)ccc2Sc2c(C)ccc(C)c21 | active: 0.411 µM | –
CC(C)(C)c1ccc(C(=O)N2CCN(c3ccc(N4CCOCC4)nn3)CC2)cc1 | inconclusive: 16.4 µM [cytotoxic, single point] | –
CCOC(=O)C1=C(CCc2ccccc2)NC(=O)NC1c1ccc(Br)cc1 (stereo not given) | inconclusive: 29.1 µM [cytotoxic, single point] | –
CCCN(CCC)C(=O)Cn1c(=O)n(-c2ccc(OC)cc2)c(=O)c2ccc(C(=O)NCc3ccc(C)cc3)cc21 | inconclusive: 29.1 µM [rising, single point] | –
O=C(CN1C(=O)/C(=C\c2ccccc2Br)Oc2ccccc21)NCCCN1CCOCC1 | – | inactive: 26.9%
CCOC(=O)CSc1nnc(CNC(=O)c2ccc(OC)cc2)n1C1CCCCC1 | inconclusive: 13 µM [rising, partial curve, poor fit] | –
O=C(c1ccc2nc(-c3ccccc3)c(-c3ccccc3)nc2c1)N1CCCCC1 | inconclusive: 10.3 µM [cytotoxic, partial curve] | –
CCOC(=O)C1CCN(C(=O)C2CCN(S(=O)(=O)c3cc(Cl)ccc3Cl)CC2)CC1 | active: 23.1 µM | –
CC1(C)CC(=O)C(=C2SCCCS2)C(=O)C1 | – | inactive: 0.0848%
Cc1ccc(NC(=O)C2CCN(S(=O)(=O)c3cccc(C(F)(F)F)c3)CC2)nc1 | inconclusive: 3.66 µM [cytotoxic, single point] | –
Cc1cc(=O)oc2ccc(OCC(=O)N3CCC(C)CC3)cc12 | inconclusive: 18.4 µM [cytotoxic, partial curve, poor fit] | –
O=C(O)C1(Cc2nc3ccccc3[nH]2)CCCC1 | inconclusive: 0.116 µM [rising, full curve, poor fit] | –
CN(C)CCOC(=O)CC12CC3CC(C1)CC(CC(=O)OCCN(C)C)(C3)C2 | inconclusive: 29.1 µM [rising, single point] | –
O=S(=O)(NCCc1csc(-c2cccnc2)n1)c1cccs1 | – | inactive: 15.9%
Cc1ccc(NC(=O)c2ccc(N3CCOCC3)c([N+](=O)[O-])c2)cc1S(=O)(=O)N1CCOCC1 | inconclusive: 16.4 µM [cytotoxic, single point] | –

Compound | Potency | activity change, negative = cytotoxicity
O=S(=O)(c1ccccc1C(F)(F)F)N1CCOCC1 | inconclusive: 23.1 µM [rising, partial curve, poor fit] | –
Cc1ccccc1C(=O)NCCN1CCOCC1 | inconclusive: 29.1 µM [rising, single point] | –
O=C(Cn1cc(/C=N/NC(=O)c2cccc3ccccc23)c2ccccc21)Nc1ccc(F)cc1 | inconclusive: 20.6 µM [rising, partial curve, poor fit] | –
COc1ccc2nc(N3CCC(C)CC3)c(C#N)cc2c1 | – | inactive: -6.25%
COc1ccccc1OCc1ccc(C(=O)NCC2CCCO2)o1 (stereo not given) | inconclusive: 14.6 µM [cytotoxic, partial curve] | –
O=C(NC(=O)N1CCN(C(c2ccccc2)c2ccccc2)CC1)c1ccccc1 | inconclusive: 16.4 µM [cytotoxic, single point] | –
CSCCC(NC(=O)COc1ccccc1)C(=O)N(C)Cc1c(F)cccc1Cl (stereo not given) | inconclusive: 6.51 µM [cytotoxic, partial curve] | –
O=C(CCCN1C(=O)/C(=C/c2ccccc2)SC1=S)NCCCn1ccnc1 | – | inactive: -11.7%
NCCCC[C@@H](C(=O)N1CCNCC1)n1cc([C@@H](N)CO)nn1 | inconclusive: 29.1 µM [rising, single point] | –
COc1cccc(NC(=O)CN2CCSc3ccccc32)c1 | inconclusive: 18.4 µM [cytotoxic, single point] | –
CCOc1cc(N2CCOCC2)c(OCC)cc1NC(=O)COC(=O)c1ccccc1C | – | inactive: -23.4%
CCOc1ccc(C(NC(=O)c2ccco2)c2ccc(OC)c(OC)c2)cc1 (stereo not given) | inconclusive: 16.4 µM [cytotoxic, partial curve] | –
O=C1c2cccc3cccc(c23)C(=O)N1CCN1CCN(CC(O)COCc2ccc(Cl)cc2)CC1 (stereo not given) | inconclusive: 9.2 µM [cytotoxic, partial curve] | –
CC(C)c1nc(CNC(=O)C2CCC(=O)N(CCc3cccc(F)c3)C2)cs1 (stereo not given) | inconclusive: 29.1 µM [cytotoxic, single point] | –
CC(=C/c1ccccc1)/C=N/n1c(-c2ccncc2)n[nH]c1=S | – | inactive: 3.42%
COc1ccc(S(=O)(=O)Nc2cc(C)nn2-c2ccccc2)cc1 | inconclusive: 9.2 µM [rising, partial curve, poor fit] | –
COc1ccc(OCCSc2nnc(-c3cccnc3)n2N)cc1 | inconclusive: 18.4 µM [cytotoxic, single point] | –
COc1ccccc1-c1ccc([C@@H]2C[C@H]3[C@@H](CN2)CON3C)cc1 | – | inactive: 10.5%
CCOc1cccc(CN2CCC(n3nccc3NC(=O)CCCc3ccccc3)CC2)c1 | – | inactive: -1.81%
CCOc1ccc(Nc2nc(N)nc(CSC(=S)N3CCOCC3)n2)cc1 | inconclusive: 9.2 µM [cytotoxic, partial curve, poor fit] | –
CC(CCCC(C)(C)O)CC1C2=C(CCCC2=O)OC2=C1C(=O)CCC2 (stereo not given) | inconclusive: 9.2 µM [cytotoxic, partial curve] | –
CC(=O)c1cccc(NS(=O)(=O)c2ccc3c(c2)NC(=O)CC(=O)N3)c1 | inconclusive: 29.1 µM [rising, single point] | –
